Measurements taken from patent US7875585 (dated 2011).
These are yes or no findings as the source states them, for the method shown. Binding calls can cover weak binding; strength is not graded here.

Protein sequences, listed by entry. Tags and fused reporters are not part of them. Lines headed by an entry give the natural chain unless they say otherwise; changes in a name come on top.
UniProt P16070: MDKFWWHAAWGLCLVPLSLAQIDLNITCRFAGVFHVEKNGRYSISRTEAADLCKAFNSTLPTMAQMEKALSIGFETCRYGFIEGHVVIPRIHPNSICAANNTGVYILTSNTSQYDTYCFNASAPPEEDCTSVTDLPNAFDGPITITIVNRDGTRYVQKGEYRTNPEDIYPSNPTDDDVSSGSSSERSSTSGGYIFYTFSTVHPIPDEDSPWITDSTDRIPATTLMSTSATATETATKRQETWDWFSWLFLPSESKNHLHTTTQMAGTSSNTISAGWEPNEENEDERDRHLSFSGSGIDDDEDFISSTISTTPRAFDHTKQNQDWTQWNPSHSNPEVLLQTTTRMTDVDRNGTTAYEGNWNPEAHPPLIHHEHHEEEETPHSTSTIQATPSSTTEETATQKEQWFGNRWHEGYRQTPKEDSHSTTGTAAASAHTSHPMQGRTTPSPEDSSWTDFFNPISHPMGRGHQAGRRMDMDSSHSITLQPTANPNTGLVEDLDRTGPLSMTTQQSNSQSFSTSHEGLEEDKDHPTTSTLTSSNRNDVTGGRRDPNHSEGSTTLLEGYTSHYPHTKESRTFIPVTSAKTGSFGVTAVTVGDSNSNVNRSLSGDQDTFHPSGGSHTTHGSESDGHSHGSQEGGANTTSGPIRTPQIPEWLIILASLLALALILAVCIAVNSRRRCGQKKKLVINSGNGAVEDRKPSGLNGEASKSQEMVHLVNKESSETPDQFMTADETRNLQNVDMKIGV

Biological target: T1, human E-selectin on CHO-E cells (human, UniProt P16581 22-610)
T1 construct: whole, on cells; also called CD62E
T1 sequence (looked up): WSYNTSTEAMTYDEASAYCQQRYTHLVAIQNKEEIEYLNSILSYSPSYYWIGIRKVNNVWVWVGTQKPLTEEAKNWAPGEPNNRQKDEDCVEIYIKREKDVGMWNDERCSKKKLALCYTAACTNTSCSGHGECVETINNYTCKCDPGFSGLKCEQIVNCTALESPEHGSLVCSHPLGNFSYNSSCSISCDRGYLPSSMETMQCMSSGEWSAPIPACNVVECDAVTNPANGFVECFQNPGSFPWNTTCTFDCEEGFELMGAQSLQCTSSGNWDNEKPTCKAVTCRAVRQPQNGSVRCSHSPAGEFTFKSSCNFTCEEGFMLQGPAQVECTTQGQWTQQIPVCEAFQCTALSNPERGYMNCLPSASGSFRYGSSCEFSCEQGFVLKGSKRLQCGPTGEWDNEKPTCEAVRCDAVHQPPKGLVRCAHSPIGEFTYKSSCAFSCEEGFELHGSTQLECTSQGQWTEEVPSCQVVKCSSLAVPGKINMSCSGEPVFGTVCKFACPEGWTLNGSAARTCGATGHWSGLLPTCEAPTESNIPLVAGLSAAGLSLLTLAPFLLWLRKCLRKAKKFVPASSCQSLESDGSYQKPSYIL
Assay: blot rolling assay with CHO-E cells

Substance | binding
CD44 from blasts of an acute myelogenous leukemia, subtype M5 (from UniProt P16070) (ligand) | binds
CD44 from the human bone marrow endothelial cell line BMEC-1 (from UniProt P16070) (ligand) | no binding
